Taken from: PubChem BioAssay AID743121 (NCATS, 2013)
The deposit covers about 26,000 reagents; shown is a part drawn at random. 167 of them (0.63%) count as active. 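Calls are per gene from RSA p-values that are not deposited; an individual active-marked siRNA can sensitise only weakly.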 The numbers tell different reagents against one gene apart. Not all columns of the deposit are shown. No sequences are given here.

- Test: 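Partners whose loss is lethal together with topoisomerase I blockade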 (primary screen)
- Cells: MDA-MB-231 cells, a human breast cancer line
- Knock-down reagent: single siRNA against human genes, 20 nM siRNA (0.8 pmol per well)
- Duration: 120 h (drug added 48 h after transfection, read 72 h later)
- Treatment: camptothecin 20 nM (about EC30) for 72 h; vehicle 0.1% DMSO in parallel plates
- Measurement: 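CellTiter-Glo ATP signal, scaled to control siRNA as percent viability; sensitisation given as log2 of untreated divided by camptothecin-treated viability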
- Scale: log2 vehicle/camptothecin viability: higher = stronger sensitisation to camptothecin
- Rule for the call: 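Active genes have an RSA gene-level p-value below 0.001, computed from the ratios of their separate siRNAs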

With knock-down of DDX54 #1, the record shows log2 vehicle/camptothecin viability -0.119; inactive.
DDX54 #2 gave log2 vehicle/camptothecin viability -0.0739; inactive.
With knock-down of DDX54 #3, the screen gave log2 vehicle/camptothecin viability -0.348; inactive.
PTAR1 #1 showed log2 vehicle/camptothecin viability 0.494; active.
After knock-down of PTAR1 #2, the record shows log2 vehicle/camptothecin viability -0.155; active.
PTAR1 #3 scored log2 vehicle/camptothecin viability 0.528; active.
Against PTAR1 #4 the deposit lists log2 vehicle/camptothecin viability 0.67; active.
Knock-down of SSR4 #1 gave: log2 vehicle/camptothecin viability -0.311; inactive.
SSR4 #2 showed log2 vehicle/camptothecin viability 0.0626; inactive.
Against SSR4 #3, the values are log2 vehicle/camptothecin viability -0.293; inactive.
Against SSR4 #4, the values are log2 vehicle/camptothecin viability 0.165; inactive.
Knock-down of SSR4 #5 came out at: log2 vehicle/camptothecin viability 0.237; inactive.
Knock-down of SSR4 #6 came out at: log2 vehicle/camptothecin viability -0.268; inactive.
Depletion of GSTCD #1 came out at: log2 vehicle/camptothecin viability -0.306; inactive.
Knock-down of GSTCD #2 came out at: log2 vehicle/camptothecin viability -0.14; inactive.
Depletion of GSTCD #3 gave: log2 vehicle/camptothecin viability -0.261; inactive.
For GSTCD #4, the entry reads log2 vehicle/camptothecin viability -0.222; inactive.
